# In paper PMC6668969:
# Amino acid sequences for entries named in this document (tags omitted).
# UniProt Q03135: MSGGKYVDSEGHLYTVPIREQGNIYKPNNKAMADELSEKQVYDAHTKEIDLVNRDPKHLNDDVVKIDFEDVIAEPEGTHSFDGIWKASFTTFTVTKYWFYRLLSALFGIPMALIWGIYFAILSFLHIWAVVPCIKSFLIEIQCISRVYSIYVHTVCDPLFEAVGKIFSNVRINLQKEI
# These are yes or no findings as the source states them, for the method shown. In cells and extracts the contact can be indirect. Some entries that bind do so weakly or less than the wild type.
# Molecular target: epidermal growth factor receptor (human (endogenous in MCF-10A and MDA-MB-231)) (UniProt P00533)
# Assay: co-IP; normal- and high-density MCF-10A and MDA-MB-231 cells lysed in IP buffer (50 mmol/L Tris-HCl, 150 mmol/L NaCl, 1% Triton X-100, 60 mmol/L OGP, pH 8.0); supernatants immunoprecipitated with EGFR agarose-conjugated antibody overnight at 4°C; control normal rabbit IgG with Protein A/G PLUS-Agarose; western blot
row,binding,Molecule
1,binds,caveolin-1 (from UniProt Q03135 1-178)
2,binds,"flotillin-2 (protein, UniProt Q14254 1-428) MGNCHTVGPNEALVVSGGCCGSDYKQYVFGGWAWAWWCISDTQRISLEIMTLQPRCEDVETAEGVALTVTGVAQVKIMTEKELLAVACEQFLGKNVQDIKNVVLQTLEGHLRSILGTLTVEQIYQDRDQFAKLVREVAAPDVGRMGIEILSFTIKDVYDKVDYLSSLGKTQTAVVQRDADIGVAEAERDAGIREAECKKEMLDVKFMADTKIADSKRAFELQKSAFSEEVNIKTAEAQLAYELQGAREQQKIRQEEIEIEVVQRKKQIAVEAQEILRTDKELIATVRRPAEAEAHRIQQIAEGEKVKQVLLAQAEAEKIRKIGEAEAAVIEAMGKAEAERMKLKAEAYQKYGDAAKMALVLEALPQIAAKIAAPLTKVDEIVVLSGDNSKVTSEVNRLLAELPASVHALTGVDLSKIPLIKKATGVQV"
3,binds,"flotillin-1 (protein, UniProt O75955 1-427) MFFTCGPNEAMVVSGFCRSPPVMVAGGRVFVLPCIQQIQRISLNTLTLNVKSEKVYTRHGVPISVTGIAQVKIQGQNKEMLAAACQMFLGKTEAEIAHIALETLEGHQRAIMAHMTVEEIYKDRQKFSEQVFKVASSDLVNMGISVVSYTLKDIHDDQDYLHSLGKARTAQVQKDARIGEAEAKRDAGIREAKAKQEKVSAQYLSEIEMAKAQRDYELKKAAYDIEVNTRRAQADLAYQLQVAKTKQQIEEQRVQVQVVERAQQVAVQEQEIARREKELEARVRKPAEAERYKLERLAEAEKSQLIMQAEAEAASVRMRGEAEAFAIGARARAEAEQMAKKAEAFQLYQEAAQLDMLLEKLPQVAEEISGPLTSANKITLVSSGSGTMGAAKVTGEVLDILTRLPESVERLTGVSISQVNHKPLRTA"
